The test can be described thus: qHTS Assay for Lipid Storage Modulators in Drosophila S3 Cells.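 On cell number change: cells counted by Cell Tracker Red CMTPX staining in the red channel.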 Particulars: BODIPY lipid droplet fluorescence, 18-24 h; for cell number change: measured here: cell count max response, cells fed with added oleic acid. The gist of the method:
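Drosophila S3 cells loaded with oleic acid (400 uM, as added) and compounds at several concentrations; lipid droplets imaged by 488-nm laser-scanning cytometry, 500–530 nm intensity and object ratio to cell channel. Percent activity normalized to 20 uM Triacsin C.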

Where [1] appears, read: measured here: lipid fluorescence (Fed channel) AC50, cells fed with added oleic acid.
The mark [2] stands for this setting: measured here: cell number channel AC50, cells fed with added oleic acid.

Some of the results follow. These are further read-outs of the screen, such as a control signal, another cell line or another target. No call is given for them. Most of these compounds were active or inconclusive in the main read-out, so they are no random draw. Potencies come from curve fits of mixed quality, noted in brackets.

Regarding `COC(C(=O)N/N=C(\C)c1ccc(C(C)(C)C)cc1)c1ccccc1` (stereo not given), the cell number change is -14%. Further, the AC50 under setting [1] was 5.8 µM [falling, partial curve].
As to `O=C(c1ccccc1)N1N=C(c2ccccc2O)CC1c1ccccc1` (stereo not given), the cell number change was found to be 15%. Moreover, the AC50 under setting [1] was 6.51 µM [rising, full curve, poor fit].
For the molecule `O=C(CN1CCN(Cc2ccc3c(c2)OCO3)CC1)Nc1ccc(N2CCOCC2)cc1`, the cell number change was 12.6%. Besides, the concentration at half-maximal activity (AC50) under setting [1] was 0.13 µM [falling, full curve, poor fit].
Consider `O=C(Nc1cccc(F)c1)c1sc(Cl)nc1-c1ccccc1`, for which the cell number change was 28.8%. Moreover, the half-maximal activity concentration (AC50) under setting [1] is 14.6 µM [rising, single point].
`CC1CC(C)CN(C(=O)C(C)N2CCN(S(=O)(=O)c3cccs3)CC2)C1` (stereo not given): the cell number change stood at 10.7%. For the same molecule, the AC50 under setting [1] was 0.00461 µM [rising, full curve, poor fit].
`O=C(Nc1ccccc1)NC1(C(=O)N2CCN(C(=O)c3ccco3)CC2)CCCCC1`: the cell number change was -1.94%. The AC50 under setting [1] was 29.1 µM [rising, single point].
Consider `CCC(=O)N1CCc2cc(S(=O)(=O)N3CCN(c4ccccc4Cl)CC3)ccc21`, for which the cell number change stood at 7.08%.
With `CC(C)(C)c1ccc(OCCNC(=S)Nc2ccccc2)cc1`, the cell number change is -1.54%.
Regarding `Cc1ccc(NC(=S)NC(=O)c2ccccc2)cc1NC(=S)NC(=O)c1ccccc1`, the cell number change was determined as 18.6%. Moreover, the AC50 under setting [1] was 0.259 µM [rising, full curve].
`Cc1ccc2[nH]c(=O)c(CN(CCCO)S(=O)(=O)c3cccc4nsnc34)cc2c1`: the cell number change was -8.75%.
For the molecule `Cc1cc(/C=C(\C#N)C(=O)NC2CCCCCC2)c(C)[nH]1`, the AC50 under setting [1] is 0.92 µM [rising, partial curve].
As to `CC(=O)Nc1ccc(Nc2nc(C)c([N+](=O)[O-])c(N(C)c3ccccc3)n2)cc1`, the cell number change was found to be 9.39%. For the same molecule, the AC50 under setting [1] was 5.17 µM [rising, full curve, poor fit].
`N[C@H]1C(O)O[C@H](CO)[C@@H](O)[C@@H]1O` (stereo not given in full): the cell number change is -4.62%. The AC50 under setting [1] is 2.31 µM [falling, single point].
Turning to `COc1ccc(CCNC(=O)Cc2ccc(NC3=NC4CS(=O)(=O)CC4S3)cc2)c(OC)c1` (stereo not given), the cell number change is -1.15%.
On the same count and under the same terms, the result for `Cc1cc([N+](=O)[O-])cc(/C=N\NC(=O)C2COc3ccccc3O2)c1O` (stereo not given) reads 13%; that for `CCCCCNC1=CC(=O)CC(c2ccccc2)C1` (stereo not given), 3.16%.
Turning to `Cc1cc(N2CCCCC2)n2ncc(-c3ccc(Cl)cc3)c2n1`, the AC50 under setting [2] was 2.06 µM [rising, partial curve].
Take `CC(Sc1nnc(CC(C)c2ccccc2)n1N)C(N)=O` (stereo not given): the cell number change was 31.6%. For the same molecule, the AC50 under setting [2] was 8.2 µM [rising, partial curve, poor fit].
Turning to `Cc1ccc(-c2ocnc2C(=O)Nc2ccccc2C(=O)N2CCCC2)cc1`, the cell number change stood at 11.5%.
Turning to `CN(C)S(=O)(=O)c1ccc(S(=O)(=O)N2CCCC2)cc1`, the cell number change was -42.6%. Besides, the AC50 under setting [2] is 25.9 µM [falling, single point].
As for `Cc1cccc(C)c1NC(=O)N1CCN(c2nc3ccccc3s2)CC1`, the cell number change is -41.6%. In addition, under setting [2], the concentration at half-maximal activity (AC50) is 29.1 µM [falling, single point].
For `Cc1cccc(N2C(=O)CC(Sc3nc(C)c4c(n3)CCCC4)C2=O)c1` (stereo not given), the AC50 under setting [2] is 2.06 µM [rising, partial curve].
For `O=S(=O)(c1ccccc1)N(Cc1cccc(F)c1)c1ccccc1`, the cell number change is -5.26%. The AC50 under setting [1] is 29.1 µM [falling, single point].
For the molecule `OCC[C@H]1C[C@@H](O)[C@H](O)[C@@]2(Cc3ccccc3CO2)O1`, the cell number change is 18%.
With `CC(C)c1ccc(CC(C)C2C3=C(CCCC3=O)OC3=C2C(=O)CCC3)cc1` (stereo not given), the half-maximal activity concentration (AC50) under setting [2] was 1.64 µM [rising, partial curve] and the AC50 under setting [1] is 0.116 µM [rising, full curve, poor fit].
Turning to `CCOC(=O)C(NS(=O)(=O)c1ccc(Br)cc1)C(C)C` (stereo not given), the cell number change was -17.6%. The AC50 under setting [1] is 20.6 µM [falling, single point].
As to `Oc1ccccc1Nc1nc(NCc2ccccc2)c2ccccc2n1`, the cell number change was -59%. Further, under setting [2], the AC50 was 16.4 µM [falling, single point]. Further, the AC50 under setting [1] was 18.4 µM [falling, single point].
As to `O=C1[C@@H]2C(c3cccnc3)=NO[C@@H]2C(=O)N1c1ccc(Br)cc1`, the cell number change is -0.261%. Besides, the AC50 under setting [1] is 3.66 µM [falling, full curve].
In the case of `CCNC(=O)CC1C(=O)N(c2ccc(C)cc2)C(=O)N1CCc1ccc(OC)c(OC)c1` (stereo not given), the AC50 under setting [1] is 7.31 µM [rising, partial curve].
With `CC(=O)Nc1ccc(NC(=O)CSc2nc(=O)n3cccc(C)c3n2)cc1`, the cell number change came out at 13.4%. For the same molecule, the AC50 under setting [1] is 29.1 µM [rising, single point].
Regarding `CCOc1cc(N2CCOCC2)c(OCC)cc1NC(=O)CSc1nccc(C)n1`, the cell number change was -4.64%. The AC50 under setting [1] is 29.1 µM [rising, single point].
As for `Cc1cc(N2C(=O)C(=O)/C(=C(/O)c3ccc(Cl)cc3)C2c2cccc(Br)c2)no1` (stereo not given), the cell number change is -8.83%. In addition, under setting [1], the AC50 is 29.1 µM [falling, single point].
`Cc1ccc(/C=N/NC(=O)c2cc(-c3ccc(C)o3)[nH]n2)cc1`: the cell number change is -10.5%.
As to `O=C(NCCCN1CCCC1=O)c1c(O)nc2sccn2c1=O`, the cell number change is -75%. The AC50 under setting [2] was 29.1 µM [falling, partial curve, poor fit]. In addition, under setting [1], the concentration at half-maximal activity (AC50) was 3.26 µM [rising, single point].
For `CC(C)(C)c1cc(NC(=O)NN2CCOCC2)nn1-c1c(Cl)cc(Cl)cc1Cl`, the cell number change is -31.8%. The AC50 under setting [2] is 25.9 µM [falling, single point]. Besides, the AC50 under setting [1] was 10.3 µM [falling, partial curve].
Take `CC(=O)CCc1ccc(OCC(O)CNC2CCCc3ccccc32)cc1` (stereo not given): the cell number change was determined as 5.82%. For the same molecule, the AC50 under setting [1] is 3.26 µM [rising, partial curve].
As to `Nc1c(-c2ccc(Cl)cc2)cnn1C1CCS(=O)(=O)C1` (stereo not given), the cell number change amounted to 30.4%. Under setting [2], the half-maximal activity concentration (AC50) was 0.164 µM [rising, full curve, poor fit].
As for `Cc1ccccc1C(=O)NCC(=O)OCCCOC(=O)CNC(=O)c1ccccc1C`, the cell number change is 37.3%. Further, under setting [2], the half-maximal activity concentration (AC50) was 5.17 µM [rising, partial curve, poor fit].
As for `Fc1ccc(Cn2ccc(-c3cnc(-c4ccccc4)s3)n2)cc1`, the AC50 runs as follows: under setting [2], 2.06 µM [rising, partial curve]; under setting [1], 2.31 µM [rising, partial curve].
With `COC(=O)c1ccccc1NC(=O)NC1CCCCC1`, the cell number change came out at 11.8%. In addition, under setting [2], the AC50 was 2.06 µM [rising, partial curve].

Broadly, the AC50 is the concentration at which the activity in the assay is half-maximal. High values mean activity only at high concentration, low ones activity at low concentration.
